No constants are given. Whether binding was seen depends on the method and setting. Binding seen in cells or lysates may run through a third protein. Some entries that bind do so weakly or less than the wild type.
Legend:
[1] = molecular target: human MCU (HsMCU), endogenous (human (endogenous in HEK-293T and HeLa)) (UniProt Q8NE86); assay: co-IP; lysates of WT HEK-293T and HeLa cells (HEK-293T MCU-KO as negative control), native conditions, reciprocal IP with anti-HsMCU or anti-HsATPc, blots for HsMCU, HsATPc and HsHsp70
[2] = molecular target: human ATP synthase subunit c (HsATPc), endogenous (human (endogenous in HEK-293T and HeLa)) (UniProt P05496); assay: as above

The chains behind the UniProt entries cited, without tags or fusion partners. Residues count along the entry.
UniProt Q8NE86, residues 51-351: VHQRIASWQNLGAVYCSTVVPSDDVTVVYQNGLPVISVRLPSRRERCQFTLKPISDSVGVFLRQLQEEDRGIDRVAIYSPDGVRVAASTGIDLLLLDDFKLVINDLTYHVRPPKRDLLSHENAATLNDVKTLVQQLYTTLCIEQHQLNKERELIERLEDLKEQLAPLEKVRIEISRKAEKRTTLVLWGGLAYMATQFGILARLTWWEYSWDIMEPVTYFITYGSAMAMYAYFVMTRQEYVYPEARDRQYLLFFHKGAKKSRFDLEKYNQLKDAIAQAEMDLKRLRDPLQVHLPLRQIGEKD
UniProt P05496, residues 62-136: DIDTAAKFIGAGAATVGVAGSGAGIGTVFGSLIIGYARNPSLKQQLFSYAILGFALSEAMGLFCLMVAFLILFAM

Substance | binding [1] | binding [2]
human ATP synthase subunit c (HsATPc), endogenous (from UniProt P05496 62-136) | binds | 
human MCU (HsMCU), endogenous (from UniProt Q8NE86 51-351) |  | binds

Reference: article PMC7078472
